Measurements reported in PubChem BioAssay AID1259254 (NCATS, 2017).
Screen: 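Genome-wide screen for genes that prevent DNA re-replication in cancer cells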 (primary screen). System: human HCT116 colorectal cancer cells. Reagent: single siRNA against human genes. Timing: 3 days. Detection: 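Imaged Hoechst DNA stain sorts each cell into a cycle phase by DNA amount; per plate, G2 fraction set to 0% for non-targeting and 100% for GMNN siRNA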. Direction: G2 robust z-score and G2 cells, % of GMNN control: higher = more G2 cells, more excess DNA replication. Rule for the call: 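An siRNA counts as active if its G2 robust z-score lies at least 5 MADs above the screen median; here such calls match roughly 38% of GMNN control or more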.
The deposit covers about 59,000 reagents; below is a random part of them. In the full data, about 1,550 (2.6%) were called active. 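G2 share is only a proxy for re-replication; each gene was hit by three separate siRNAs, and active genes were retested.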 Not all columns of the deposit are shown. The record does not give: the amount of reagent.

The opening 4 entries as a preview:
no.	gene	PubChem SID	G2 robust z-score	G2 cells, % of GMNN control	outcome
1	MGAT4A (GeneID 11320)	SID160730501	-0.562	-0.986	inactive
2	MGAT4A (GeneID 11320)	SID160730511	2.65	21.6	inactive
3	MGAT4A (GeneID 11320)	SID160730521	0.943	9.6	inactive
4	PGA5 (GeneID 5222)	SID160714192	-0.402	0.14	inactive

The listing, from the first entry:
no.	gene	PubChem SID	G2 robust z-score	G2 cells, % of GMNN control	outcome
1	MGAT4A (GeneID 11320)	SID160730501	-0.562	-0.986	inactive
2	MGAT4A (GeneID 11320)	SID160730511	2.65	21.6	inactive
3	MGAT4A (GeneID 11320)	SID160730521	0.943	9.6	inactive
4	PGA5 (GeneID 5222)	SID160714192	-0.402	0.14	inactive
5	PGA5 (GeneID 5222)	SID160714193	-0.473	-0.364	inactive
6	PGA5 (GeneID 5222)	SID160714194	-0.104	2.23	inactive
7	JPH2 (GeneID 57158)	SID160724487	1.79	15.6	inactive
8	JPH2 (GeneID 57158)	SID160724488	-0.217	1.44	inactive
9	JPH2 (GeneID 57158)	SID160724489	-0.787	-2.57	inactive
10	TRPV3 (GeneID 162514)	SID160759931	2.79	22.6	inactive
11	TRPV3 (GeneID 162514)	SID160759932	1.41	12.9	inactive
12	TRPV3 (GeneID 162514)	SID160759933	0.0407	3.25	inactive
13	PPP4R1 (GeneID 9989)	SID160716176	-0.552	-0.919	inactive
14	PPP4R1 (GeneID 9989)	SID160716272	-0.574	-1.07	inactive
15	PPP4R1 (GeneID 9989)	SID160716373	1.15	11.1	inactive
16	NGDN (GeneID 25983)	SID160737390	0.082	3.54	inactive
17	NGDN (GeneID 25983)	SID160737391	2.49	20.5	inactive
18	NGDN (GeneID 25983)	SID160737392	3.78	29.5	inactive
19	OR52E4 (GeneID 390081)	SID160766377	-0.232	1.33	inactive
20	OR52E4 (GeneID 390081)	SID160766378	2.6	21.2	inactive
21	OR52E4 (GeneID 390081)	SID160766379	-0.319	0.724	inactive
22	PCARE (GeneID 388939)	SID160766031	-0.00279	2.95	inactive
23	PCARE (GeneID 388939)	SID160766032	-0.452	-0.214	inactive
24	PCARE (GeneID 388939)	SID160766033	0.597	7.17	inactive
25	ATF2 (GeneID 1386)	SID160747960	9.18	67.6	active
26	ATF2 (GeneID 1386)	SID160747971	-1.22	-5.63	inactive
27	ATF2 (GeneID 1386)	SID160747980	-0.639	-1.53	inactive
28	NUFIP1 (GeneID 26747)	SID160738169	6.69	50	active
29	NUFIP1 (GeneID 26747)	SID160738170	0.225	4.55	inactive
30	NUFIP1 (GeneID 26747)	SID160738171	-0.16	1.84	inactive
31	PROK1 (GeneID 84432)	SID160752226	0.641	7.47	inactive
32	PROK1 (GeneID 84432)	SID160752227	0.51	6.55	inactive
33	PROK1 (GeneID 84432)	SID160752228	-0.841	-2.95	inactive
34	ENKD1 (GeneID 84080)	SID160751703	1.73	15.1	inactive
35	ENKD1 (GeneID 84080)	SID160751704	-0.988	-3.98	inactive
36	ENKD1 (GeneID 84080)	SID160751705	-0.202	1.55	inactive
37	SIRPB2 (GeneID 284759)	SID160763433	-0.624	-1.42	inactive
38	SIRPB2 (GeneID 284759)	SID160763434	2.36	19.6	inactive
39	SIRPB2 (GeneID 284759)	SID160763435	1.43	13	inactive
40	CDK16 (GeneID 5127)	SID160713951	1.58	14.1	inactive
41	CDK16 (GeneID 5127)	SID160713952	-0.358	0.449	inactive
42	CDK16 (GeneID 5127)	SID160713953	-0.747	-2.29	inactive
43	LIN7C (GeneID 55327)	SID160743545	-0.504	-0.578	inactive
44	LIN7C (GeneID 55327)	SID160743546	-0.197	1.58	inactive
45	LIN7C (GeneID 55327)	SID160743548	-1.1	-4.77	inactive
46	DCTN4 (GeneID 51164)	SID160740220	0.432	6.01	inactive
47	DCTN4 (GeneID 51164)	SID160740222	-0.692	-1.9	inactive
48	DCTN4 (GeneID 51164)	SID160740223	3.86	30.1	inactive
49	SLC44A1 (GeneID 23446)	SID160732766	1.32	12.3	inactive
50	SLC44A1 (GeneID 23446)	SID160736302	-0.51	-0.618	inactive
51	SLC44A1 (GeneID 23446)	SID160736303	0.164	4.12	inactive
52	ELF4 (GeneID 2000)	SID160759839	-1.05	-4.45	inactive
53	ELF4 (GeneID 2000)	SID160759849	0.541	6.78	inactive
54	ELF4 (GeneID 2000)	SID160759860	-0.856	-3.06	inactive
55	RPL13AP17 (GeneID 399670)	SID160766834	-0.762	-2.39	inactive
56	RPL13AP17 (GeneID 399670)	SID160766835	0.342	5.38	inactive
57	RPL13AP17 (GeneID 399670)	SID160766836	0.395	5.75	inactive
58	DNAJC12 (GeneID 56521)	SID160745056	-0.761	-2.38	inactive
59	DNAJC12 (GeneID 56521)	SID160745057	1.64	14.5	inactive
60	DNAJC12 (GeneID 56521)	SID160745058	-0.352	0.493	inactive
61	CLEC4M (GeneID 10332)	SID160728198	0.118	3.8	inactive
62	CLEC4M (GeneID 10332)	SID160728199	0.213	4.47	inactive
63	CLEC4M (GeneID 10332)	SID160728200	0.151	4.03	inactive
64	SEMA3G (GeneID 56920)	SID160745299	-0.591	-1.19	inactive
65	SEMA3G (GeneID 56920)	SID160745300	-1.02	-4.22	inactive
66	SEMA3G (GeneID 56920)	SID160745301	1.06	10.4	inactive
67	TNKS (GeneID 8658)	SID160720529	-0.55	-0.904	inactive
68	TNKS (GeneID 8658)	SID160720530	0.423	5.94	inactive
69	TNKS (GeneID 8658)	SID160720531	1.02	10.2	inactive
